The target of this experiment is XIAP BIR3 domain (Homo sapiens, UniProt P98170). The experiment can be described thus: Fluorescence polarization inhibition (competition) assay. As to conditions: XIAP BIR3 50 nM, fluorescent probe 4 2 nM. The experiment is classed as binding. (In fluorescence polarisation assays a small probe gives low polarisation when free and higher when bound to something large.)

Sequences of proteins named here, by UniProt entry; tags and fusion partners are left off. Residues count along the entry.
UniProt P98170, 252-356 limits assumed: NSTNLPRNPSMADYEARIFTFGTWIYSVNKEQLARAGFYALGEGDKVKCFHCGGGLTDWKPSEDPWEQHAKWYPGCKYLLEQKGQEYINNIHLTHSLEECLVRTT

This is an account of results in publication PMC7497679, “Structure-based design, synthesis, and evaluation of the biological activity of novel phosphoroorganic small molecule IAP antagonists” (Investigational New Drugs, 2020).

pEC50: −log10 of the molar value. The match of structure and compound is tentative.

A word on the pEC50: it is the negative decadic logarithm of the EC50, by convention in mol/L. High values mean a low EC50, low ones a high EC50. In turn, `CN[C@@H](C)C(=O)N[C@H](C(=O)N1CCC[C@H]1C(=O)NC(Cc1ccccc1)P(=O)(O)Oc1ccccc1O)C1CCCCC1` (some centres unmarked) had a pEC50 of 6.28. In turn, `CN[C@@H](C)C(=O)N[C@H](C(=O)N1CCC[C@H]1C(=O)NC(Cc1ccccc1)P(=O)(O)Oc1ccccc1O)C(C)C` (some centres unmarked) showed a pEC50 of 6.37.
